PubChem BioAssay AID1224826, NIAID, 2016
The whole screen tested about 17,000 reagents; this is an unselected part. Over the whole deposit, about 1,110 (6.6%) were called active. 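Active means lowered or raised reporter signal; replicate intensities are raw and not normalised per plate.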

Screen: 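Knock-downs that raise or lower Tnf reporter signal after endotoxin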 (primary screen)
Cells: RAW264.7 G9 macrophages from mouse bearing reporters for p65 (GFP) and the Tnf promoter (mCherry)
Reagent: siRNA pool against mouse genes, 100 nM
Timing: 16 h of LPS stimulation, after 2 days of siRNA transfection
Conditions: bacterial lipopolysaccharide (Salmonella minnesota R595), 10 ng/ml
Measurement: 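Imaged Tnf reporter mCherry in nuclei, minus background, normalised per plate to the median and expressed as robust z-scores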
Direction: Tnf reporter robust z-score: higher = stronger Tnf promoter reporter signal after LPS; Tnf reporter intensity: higher = stronger Tnf promoter reporter signal
Call rule: 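a well counts as active at a score of -1.3 or below (Tlr4 knock-down control median) or above 3 (raised signal); controls and wells holding fewer than 50 cells are excluded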
Calls: active = Tnf reporter clearly lowered or raised; inactive = no clear change in Tnf reporter

gene	Tnf reporter robust z-score	fewer than 50 cells in well	Tnf reporter intensity, replicate 1	Tnf reporter intensity, replicate 2	call
Tent4b	-0.85	enough cells in well	108	118	inactive
Ifnar2	-0.58	enough cells in well	187	155	inactive
Slc22a20	-0.93	enough cells in well	191	97.2	inactive
Cox6b1	2.27	enough cells in well	340	297	inactive
Isg20	-0.23	enough cells in well	221	139	inactive
Hspb8	-0.69	enough cells in well	113	125	inactive
Snx31	-0.97	enough cells in well	124	42.1	inactive
Zmpste24	0.85	enough cells in well	408	234	inactive
Usp29	1.84	enough cells in well	189	132	inactive
Ccnh	-0.66	enough cells in well	211	143	inactive
Runx3	-0.17	enough cells in well	346	157	inactive
Tiaf2	1.65	enough cells in well	204	127	inactive
Pbx3	-0.95	enough cells in well	177	114	inactive
Zfp1006	0.92	enough cells in well	313	96.4	inactive
Pmaip1	-1.6	enough cells in well	65.5	53.5	active
Tlr6	-0.67	enough cells in well	138	76.7	inactive
Kctd3	-0.13	enough cells in well	173	133	inactive
Tbc1d23	0.4	enough cells in well	259	67.2	inactive
Prelp	1.49	enough cells in well	265	125	inactive
Ccl5	-0.38	enough cells in well	220	177	inactive
Tmco4		fewer than 50 cells per well; well left out of calls	122	20.7	inactive
Ednrb	0.27	enough cells in well	217	353	inactive
Kif3b	-0.67	enough cells in well	222	90.1	inactive
Arvcf	1.57	enough cells in well	229	292	inactive
Pde6g	0.11	enough cells in well	225	209	inactive
Krt82	1.41	enough cells in well	291	188	inactive
Ephx3	-0.23	enough cells in well	144	148	inactive
Ifi30	-1.42	enough cells in well	130	92.6	active
Fkbp7	-0.78	enough cells in well	165	112	inactive
Mrpl12	0.54	enough cells in well	283	117	inactive
Bzw1	1.5	enough cells in well	202	249	inactive
Fcer1a	0.42	enough cells in well	267	257	inactive
Gh	0.53	enough cells in well	242	194	inactive
Lce1h	1.63	enough cells in well	158	152	inactive
Or6f2		fewer than 50 cells per well; well left out of calls	58.6	79.4	inactive
Cst7	-0.6	enough cells in well	156	193	inactive
Tmem72		fewer than 50 cells per well; well left out of calls	58.7	39.1	inactive
Or9i2	0.83	enough cells in well	187	185	inactive
Smox		fewer than 50 cells per well; well left out of calls	56.6	44.3	inactive
Or8c8	0.76	enough cells in well	211	163	inactive
Shd		fewer than 50 cells per well; well left out of calls	0	38	inactive
Kif3c	-0.27	enough cells in well	209	143	inactive
Hnrnpll	-0.41	enough cells in well	216	37.2	inactive
Rbm39	-0.21	enough cells in well	120	117	inactive
Gtsf2	2.18	enough cells in well	8.25	288	inactive
2310011J03Rik	1.27	enough cells in well	218	52.6	inactive
Trip11		fewer than 50 cells per well; well left out of calls	132	156	inactive
Rbl2	-0.93	enough cells in well	223	133	inactive
Defb38	-1.62	enough cells in well	123	42.5	active
Tnk1	-0.29	enough cells in well	160	94.9	inactive
Or4g7	-0.38	enough cells in well	180	89.6	inactive
Nes	-0.72	enough cells in well	129	104	inactive
Ube2o		fewer than 50 cells per well; well left out of calls	95.4	140	inactive
Ecel1	0.37	enough cells in well	240	279	inactive
Fam53a	-1.21	enough cells in well	107	84.5	inactive
Smyd4		fewer than 50 cells per well; well left out of calls	82.3	47.9	inactive
Dhodh	-1.02	enough cells in well	143	144	inactive
Stox2	0.64	enough cells in well	178	81.8	inactive
